Measured values taken from the supplement of paper PMC4604168 (melanoma cell lines).
Some of the results follow. Repeats are few or missing, and single values can be far off.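 Cells were imaged in 1,536-well plates, and nuclei stained with an antibody against cleaved PARP were counted against all DNA-stained nuclei to give the apoptosis fraction. Screening doses were chosen to leave most cells alive, and resting and induced cleaved-PARP levels differ strongly between cell lines.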

Assays:
Test in all cases: cleaved PARP positive nuclei fraction relative to DMSO control; melanoma cells; higher = more apoptosis
Settings in all cases: library dose: low library concentration; 72 h
[1] = tested on: WM115
[2] = tested on: WM1716
[3] = tested on: WM1745
[4] = tested on: WM3526
[5] = tested on: WM3619
[6] = tested on: WM451Lu

SMILES	cleaved PARP positive nuclei fraction [1]	cleaved PARP positive nuclei fraction [2]	cleaved PARP positive nuclei fraction [3]	cleaved PARP positive nuclei fraction [4]	cleaved PARP positive nuclei fraction [5]	cleaved PARP positive nuclei fraction [6]
C[C@@H](N)c1ccc(C(=O)Nc2ccnc3[nH]ccc23)cc1 + O=C(Nc1ccccc1)c1cc([N+](=O)[O-])ccc1Cl [GW9662] (first compound 0.4 µM, partner dose 2 µM)	37.3%	51.8%	99.2%	169%	78.1%	104%
COc1ccc(C2=N[C@@H](c3ccc(Cl)cc3)[C@@H](c3ccc(Cl)cc3)N2C(=O)N2CCNC(=O)C2)c(OC(C)C)c1 [Nutlin-3] + C[C@@H](Oc1cc(-c2cnn(C3CCNCC3)c2)cnc1N)c1c(Cl)ccc(F)c1Cl [Crizotinib] (first compound 0.1 µM, partner dose 0.2 µM)	58.9%	20%	109%	101%	93.9%	166%
CC1(C)CCC(c2ccc(Cl)cc2)=C(CN2CCN(c3ccc(C(=O)NS(=O)(=O)c4ccc(N[C@H](CCN5CCOCC5)CSc5ccccc5)c(S(=O)(=O)C(F)(F)F)c4)cc3)CC2)C1 + Clc1ccc(Nc2nnc(Cc3ccncc3)c3ccccc23)cc1 [vatalanib] (first compound 0.4 µM, partner dose 2 µM)	236%	194%	1170%	109%	119%	407%
CS(=O)(=O)c1ccc(C(=O)Nc2ccc(Cl)c(-c3ccccn3)c2)c(Cl)c1 [vismodegib] + COc1cc(Nc2ncc(F)c(Nc3ccc4c(n3)NC(=O)C(C)(C)O4)n2)cc(OC)c1OC [Tamatinib] (first compound 1 µM, partner dose 0.4 µM)	130%	52.2%	123%	64.1%	105%	253%
CC1(C)CCC(c2ccc(Cl)cc2)=C(CN2CCN(c3ccc(C(=O)NS(=O)(=O)c4ccc(N[C@H](CCN5CCOCC5)CSc5ccccc5)c(S(=O)(=O)C(F)(F)F)c4)cc3)CC2)C1 + CN(c1ncccc1CNc1nc(Nc2ccc3c(c2)CC(=O)N3)ncc1C(F)(F)F)S(C)(=O)=O [PF562271] (first compound 0.4 µM, partner dose 0.08 µM)	311%	230%	1210%	53.5%	99.6%	132%
Cn1sc(=O)n(Cc2ccccc2)c1=O + OCc1c[nH]c2ccccc12 [Indole-3-carbinol] (first compound 0.4 µM, partner dose 0.8 µM)	67.8%	121%	93.2%	195%	115%	81%
CS(=O)(=O)c1ccc(C(=O)Nc2ccc(Cl)c(-c3ccccn3)c2)c(Cl)c1 [vismodegib] + C=C(c1ccc(C(=O)O)cc1)c1cc2c(cc1C)C(C)(C)CCC2(C)C [Bexarotene] (first compound 1 µM, partner dose 2 µM)	38.5%	60.3%	92%	45.9%	97%	54.6%
C[C@@H](N)c1ccc(C(=O)Nc2ccnc3[nH]ccc23)cc1 + Cn1nnc2c(C(N)=O)ncn2c1=O [temozolomide] (first compound 0.4 µM, partner dose 2 µM)	145%	56.2%	128%	34.2%	103%	59.2%
Cn1cnc2c(F)c(Nc3ccc(Br)cc3Cl)c(C(=O)NOCCO)cc21 [selumetinib] + Cc1cc(N2CCOCC2)cc2[nH]c(-c3c(NC[C@@H](O)c4cccc(Cl)c4)cc[nH]c3=O)nc12 [BMS536924] (first compound 0.015 µM, partner dose 0.2 µM)	172%	89.2%	118%	80.3%	293%	49.9%
NC(=O)c1ccc(N(C(N)=O)c2c(F)cccc2F)nc1-c1ccc(F)cc1F + C[C@]1(c2nc3c(C(N)=O)cccc3[nH]2)CCCN1 [Veliparib] (first compound 0.4 µM, partner dose 1.4 µM)	203%	36.3%	103%	46.1%	92.3%	19.9%
C[C@@H](N)c1ccc(C(=O)Nc2ccnc3[nH]ccc23)cc1 + c1cc(-c2cnn3cc(-c4ccc(OCCN5CCCCC5)cc4)cnc23)ccn1 [Dorsomorphin] (first compound 0.4 µM, partner dose 0.4 µM)	51%	108%	119%	33.2%	98.9%	50.7%
CS(=O)(=O)c1ccc(C(=O)Nc2ccc(Cl)c(-c3ccccn3)c2)c(Cl)c1 [vismodegib] + CCCCCCCCCCCC1=C(O)C(=O)C=C(O)C1=O [Embelin] (first compound 1 µM, partner dose 1.2 µM)	148%	66.8%	78%	70.1%	89.5%	74.2%
NC(=O)c1ccc(N(C(N)=O)c2c(F)cccc2F)nc1-c1ccc(F)cc1F + Nc1nc(F)nc2c1ncn2[C@@H]1O[C@H](CO)[C@@H](O)[C@@H]1O [fludarabine] (first compound 0.4 µM, partner dose 0.2 µM)	158%	128%	103%	70.4%	77.2%	85.1%
NC(=O)c1ccc(N(C(N)=O)c2c(F)cccc2F)nc1-c1ccc(F)cc1F + CO[C@H]1C[C@@H]2CC[C@@H](C)[C@@](O)(O2)C(=O)C(=O)N2CCCC[C@H]2C(=O)O[C@H]([C@H](C)C[C@@H]2CC[C@@H](OCCO)[C@H](OC)C2)CC(=O)[C@H](C)/C=C(\C)[C@@H](O)[C@@H](OC)C(=O)[C@H](C)C[C@H](C)/C=C/C=C/C=C/1C [everolimus] (first compound 0.4 µM, partner dose 0.02 µM)	129%	76.4%	115%	107%	120%	99%
Cn1cnc2c(F)c(Nc3ccc(Br)cc3Cl)c(C(=O)NOCCO)cc21 [selumetinib] + C[C@]1(O)C[C@@H](c2nc(-c3ccc4ccc(-c5ccccc5)nc4c3)c3c(N)nccn32)C1 [OSI906] (first compound 0.015 µM, partner dose 0.4 µM)	130%	32.7%	122%	208%	111%	50.8%
CC1(C)CCC(c2ccc(Cl)cc2)=C(CN2CCN(c3ccc(C(=O)NS(=O)(=O)c4ccc(N[C@H](CCN5CCOCC5)CSc5ccccc5)c(S(=O)(=O)C(F)(F)F)c4)cc3)CC2)C1 + CCN(CC)CCCCNc1ncc2cc(-c3cc(OC)cc(OC)c3)c(NC(=O)NC(C)(C)C)nc2n1 [PD173074] (first compound 0.4 µM, partner dose 0.1 µM)	380%	109%	811%	41.9%	122%	168%
CC(=O)O[C@@]12CO[C@@H]1C[C@H](O)[C@@]1(C)C(=O)[C@H](O)C3=C(C)[C@@H](OC(=O)[C@H](O)[C@@H](NC(=O)OC(C)(C)C)c4ccccc4)C[C@@](O)([C@@H](OC(=O)c4ccccc4)[C@H]21)C3(C)C [Docetaxel] + Cc1ccc(NC(=O)c2cccc(N(C)C)c2)cc1NC(=O)c1ccc(O)cc1 [ZM336372] (first compound 0.0001 µM, partner dose 2 µM)	75.8%	336%	207%	143%	168%	159%
CCN(CC)CCNC(=O)c1c(C)[nH]c(/C=C2\C(=O)Nc3ccc(F)cc32)c1C [sunitinib] + Nc1nc(F)nc2c1ncn2[C@@H]1O[C@H](CO)[C@@H](O)[C@@H]1O [fludarabine] (first compound 0.4 µM, partner dose 0.2 µM)	99.2%	148%	102%	589%	90.2%	59.4%
CC(=O)O[C@@]12CO[C@@H]1C[C@H](O)[C@@]1(C)C(=O)[C@H](O)C3=C(C)[C@@H](OC(=O)[C@H](O)[C@@H](NC(=O)OC(C)(C)C)c4ccccc4)C[C@@](O)([C@@H](OC(=O)c4ccccc4)[C@H]21)C3(C)C [Docetaxel] + CN(c1ncccc1CNc1nc(Nc2ccc3c(c2)CC(=O)N3)ncc1C(F)(F)F)S(C)(=O)=O [PF562271] (first compound 0.0001 µM, partner dose 0.08 µM)	528%	773%	247%	100%	126%	135%
CN(c1ncccc1CNc1nc(Nc2ccc3c(c2)CC(=O)N3)ncc1C(F)(F)F)S(C)(=O)=O + Nc1ncn([C@H]2C[C@H](O)[C@@H](CO)O2)c(=O)n1 [decitabine] (first compound 0.08 µM, partner dose 0.1 µM)	191%	131%	128%	144%	192%	76.5%
CN(c1ncccc1CNc1nc(Nc2ccc3c(c2)CC(=O)N3)ncc1C(F)(F)F)S(C)(=O)=O + COc1cc2c(Oc3ccc4[nH]c(C)cc4c3F)ncnc2cc1OCCCN1CCCC1 [cediranib] (first compound 0.08 µM, partner dose 0.4 µM)	25.3%	90.6%	106%	74.4%	90.9%	75.6%
C[C@]1(O)C[C@@H](c2nc(-c3ccc4ccc(-c5ccccc5)nc4c3)c3c(N)nccn32)C1 + C[C@@H]1CCN(C(=O)CC#N)C[C@@H]1N(C)c1ncnc2[nH]ccc12 [CP690550] (first compound 0.4 µM, partner dose 1 µM)	64.7%	74.7%	81.7%	71%	92.7%	82%
CC(=O)O[C@@]12CO[C@@H]1C[C@H](O)[C@@]1(C)C(=O)[C@H](O)C3=C(C)[C@@H](OC(=O)[C@H](O)[C@@H](NC(=O)OC(C)(C)C)c4ccccc4)C[C@@](O)([C@@H](OC(=O)c4ccccc4)[C@H]21)C3(C)C [Docetaxel] + O=C1NC(=O)/C(=C/c2ccc(-c3ccc(F)cc3O)o2)S1 [AS252424] (first compound 0.0001 µM, partner dose 1 µM)	298%	483%	142%	302%	136%	388%
CCN(CC)CCNC(=O)c1c(C)[nH]c(/C=C2\C(=O)Nc3ccc(F)cc32)c1C [sunitinib] + O=c1cc(-c2cccc3c2Sc2ccccc2S3)oc(N2CCOCC2)c1 [KU55933] (first compound 0.4 µM, partner dose 1 µM)	72.9%	69.5%	156%	52%	64.5%	75.3%

2 successive entries out of the list so far, for reference:
SMILES	cleaved PARP positive nuclei fraction [1]	cleaved PARP positive nuclei fraction [2]	cleaved PARP positive nuclei fraction [3]	cleaved PARP positive nuclei fraction [4]	cleaved PARP positive nuclei fraction [5]	cleaved PARP positive nuclei fraction [6]
COc1ccc(C2=N[C@@H](c3ccc(Cl)cc3)[C@@H](c3ccc(Cl)cc3)N2C(=O)N2CCNC(=O)C2)c(OC(C)C)c1 [Nutlin-3] + C[C@@H](Oc1cc(-c2cnn(C3CCNCC3)c2)cnc1N)c1c(Cl)ccc(F)c1Cl [Crizotinib] (first compound 0.1 µM, partner dose 0.2 µM)	58.9%	20%	109%	101%	93.9%	166%
CC1(C)CCC(c2ccc(Cl)cc2)=C(CN2CCN(c3ccc(C(=O)NS(=O)(=O)c4ccc(N[C@H](CCN5CCOCC5)CSc5ccccc5)c(S(=O)(=O)C(F)(F)F)c4)cc3)CC2)C1 + Clc1ccc(Nc2nnc(Cc3ccncc3)c3ccccc23)cc1 [vatalanib] (first compound 0.4 µM, partner dose 2 µM)	236%	194%	1170%	109%	119%	407%
